From US20260193623
For at least one entry, the source does not settle the construct or the ends of the probe. For part of these data: Where a protein sequence is shown, tags need not be part of it.

Tests used:
Assay in all cases: activity assay
[1] = system: MG140-8c5 (C-terminal endonuclease trim); settings: primer extension; 10 mM MgCl2, 0.2 M NaCl; purified recombinant protein; label: 5'-FAM primer; DNA:RNA hybrid
MG153-20 = system: T1, MG153-20; settings: primer extension gel; 3 mM MgCl2, 37 C; protein translated in vitro; protein details: N-terminal Strep; label: 5'-FAM primer; DNA:RNA hybrid
T1 sequence (limits assumed): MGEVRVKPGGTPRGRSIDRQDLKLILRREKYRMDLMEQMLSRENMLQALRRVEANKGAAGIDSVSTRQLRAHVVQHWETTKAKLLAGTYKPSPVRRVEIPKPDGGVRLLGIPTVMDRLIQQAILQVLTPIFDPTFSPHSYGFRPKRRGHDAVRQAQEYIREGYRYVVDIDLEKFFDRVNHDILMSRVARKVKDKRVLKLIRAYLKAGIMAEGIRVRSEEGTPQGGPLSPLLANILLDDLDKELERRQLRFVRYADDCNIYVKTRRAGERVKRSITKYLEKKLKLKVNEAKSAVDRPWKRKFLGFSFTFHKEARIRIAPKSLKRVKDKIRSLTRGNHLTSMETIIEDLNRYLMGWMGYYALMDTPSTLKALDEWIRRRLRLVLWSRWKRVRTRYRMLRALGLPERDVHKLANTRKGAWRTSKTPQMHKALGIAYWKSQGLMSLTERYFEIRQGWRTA

MG153-31 = system: T2, MG153-31; settings: primer extension gel; 3 mM MgCl2, 37 C; protein translated in vitro; protein details: N-terminal Strep; label: 5'-FAM primer; DNA:RNA hybrid
T2 sequence (limits assumed): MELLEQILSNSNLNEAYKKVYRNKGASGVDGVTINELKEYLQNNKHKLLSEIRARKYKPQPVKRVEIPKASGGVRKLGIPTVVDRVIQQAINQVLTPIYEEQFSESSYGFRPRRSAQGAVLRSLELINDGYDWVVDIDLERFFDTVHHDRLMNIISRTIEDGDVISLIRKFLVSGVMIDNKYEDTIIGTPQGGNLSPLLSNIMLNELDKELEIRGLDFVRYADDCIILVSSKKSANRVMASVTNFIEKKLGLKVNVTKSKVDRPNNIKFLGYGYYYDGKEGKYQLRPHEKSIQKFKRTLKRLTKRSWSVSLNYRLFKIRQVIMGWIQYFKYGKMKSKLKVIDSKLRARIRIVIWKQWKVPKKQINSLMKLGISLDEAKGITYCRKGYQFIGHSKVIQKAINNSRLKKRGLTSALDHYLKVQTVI

MG153-34 = settings: primer extension gel; 3 mM MgCl2, 37 C; protein translated in vitro; protein details: N-terminal Strep; label: 5'-FAM primer; DNA:RNA hybrid
MG153-53 = system: T3, MG153-53; settings: primer extension gel; 3 mM MgCl2, 37 C; protein translated in vitro; protein details: N-terminal Strep; label: 5'-FAM primer; DNA:RNA hybrid
T3 sequence (limits assumed): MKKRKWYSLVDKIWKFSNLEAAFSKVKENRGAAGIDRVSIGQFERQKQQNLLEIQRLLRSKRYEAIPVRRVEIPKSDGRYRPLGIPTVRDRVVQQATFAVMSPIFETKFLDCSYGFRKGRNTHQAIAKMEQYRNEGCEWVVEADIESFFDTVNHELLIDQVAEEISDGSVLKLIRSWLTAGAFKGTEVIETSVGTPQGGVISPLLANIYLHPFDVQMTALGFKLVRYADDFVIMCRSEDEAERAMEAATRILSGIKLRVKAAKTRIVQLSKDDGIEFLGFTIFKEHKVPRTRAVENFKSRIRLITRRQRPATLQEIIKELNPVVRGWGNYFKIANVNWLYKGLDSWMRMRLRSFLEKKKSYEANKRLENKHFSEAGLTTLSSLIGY

MG153-5 = system: T4, MG153-5; settings: primer extension gel; 3 mM MgCl2, 37 C; protein translated in vitro; protein details: N-terminal Strep; label: 5'-FAM primer; DNA:RNA hybrid
T4 sequence (limits assumed): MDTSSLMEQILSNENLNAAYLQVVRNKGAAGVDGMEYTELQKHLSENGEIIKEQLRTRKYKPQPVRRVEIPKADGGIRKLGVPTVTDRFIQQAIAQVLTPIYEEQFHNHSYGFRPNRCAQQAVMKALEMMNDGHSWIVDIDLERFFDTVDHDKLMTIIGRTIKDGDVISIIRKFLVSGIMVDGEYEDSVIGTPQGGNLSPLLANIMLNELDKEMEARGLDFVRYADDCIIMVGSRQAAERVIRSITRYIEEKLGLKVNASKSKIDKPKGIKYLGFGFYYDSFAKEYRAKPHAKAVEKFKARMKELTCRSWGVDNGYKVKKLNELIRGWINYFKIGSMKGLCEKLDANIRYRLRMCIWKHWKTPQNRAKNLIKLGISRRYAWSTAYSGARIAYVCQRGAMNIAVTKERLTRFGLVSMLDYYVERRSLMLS

MG155-2 = system: T5, MG155-2; settings: primer extension on general RNA; protein translated in vitro; protein details: N-terminal Strep; label: 5'-FAM primer; DNA:RNA hybrid
T5 sequence: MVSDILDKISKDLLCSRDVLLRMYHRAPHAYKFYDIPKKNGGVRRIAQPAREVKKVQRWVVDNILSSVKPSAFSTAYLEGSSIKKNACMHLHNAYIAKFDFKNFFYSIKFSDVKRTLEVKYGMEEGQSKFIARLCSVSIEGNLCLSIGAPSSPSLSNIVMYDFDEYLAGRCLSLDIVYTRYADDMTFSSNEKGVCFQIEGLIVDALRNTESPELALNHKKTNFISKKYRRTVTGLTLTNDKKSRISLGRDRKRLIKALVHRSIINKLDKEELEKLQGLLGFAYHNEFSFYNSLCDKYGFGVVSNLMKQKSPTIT

MG159-1 = system: T6, MG159-1; settings: primer extension on general RNA; protein translated in vitro; protein details: N-terminal Strep; label: 5'-FAM primer; DNA:RNA hybrid
T6 sequence: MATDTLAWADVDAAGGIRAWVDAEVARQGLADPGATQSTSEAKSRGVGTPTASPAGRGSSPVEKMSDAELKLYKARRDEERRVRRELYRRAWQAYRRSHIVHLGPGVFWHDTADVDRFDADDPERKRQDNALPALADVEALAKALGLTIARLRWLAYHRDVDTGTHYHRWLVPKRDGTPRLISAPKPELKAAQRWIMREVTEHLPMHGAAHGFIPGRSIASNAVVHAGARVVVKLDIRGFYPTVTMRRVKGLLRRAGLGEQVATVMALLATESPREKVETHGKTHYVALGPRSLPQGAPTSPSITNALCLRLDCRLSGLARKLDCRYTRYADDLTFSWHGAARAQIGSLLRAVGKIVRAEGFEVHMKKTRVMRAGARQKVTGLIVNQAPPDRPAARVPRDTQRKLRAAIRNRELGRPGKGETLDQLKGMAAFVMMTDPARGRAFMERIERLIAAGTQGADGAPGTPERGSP

MG160-1 = system: T7, MG160-1; settings: primer extension gel and qPCR; protein translated in vitro; protein details: N-terminal Strep; label: 5'-FAM primer; DNA:RNA hybrid
T7 sequence (limits assumed): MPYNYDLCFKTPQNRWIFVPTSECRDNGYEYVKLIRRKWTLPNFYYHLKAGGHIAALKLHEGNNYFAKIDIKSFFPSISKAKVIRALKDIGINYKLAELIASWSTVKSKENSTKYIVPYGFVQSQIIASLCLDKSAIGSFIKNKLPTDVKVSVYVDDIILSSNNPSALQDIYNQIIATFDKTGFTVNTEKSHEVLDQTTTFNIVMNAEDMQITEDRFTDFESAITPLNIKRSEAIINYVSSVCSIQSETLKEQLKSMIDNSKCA

Measured: activity on this sequence

GGCAAACCGCCTCTCCCCGCGCGTTGGCCGATTCATTAATGCAGCTGGCACGACAGGTTTCCCGACTGGAAAGGAGACCCGGGCAGTGAGCGCAACGGGTCTCCAATTTAAGCCAGCCCCGACACCCGCCAACACCCGCTGACGCGCCCTGACGGGCTTGTCTGCTCCCGGCATCCGCTTACAGACAAGCTGTGACCGTCTC / GAGACGGTCACAGCTTGTCTG [202-nt RNA template annealed to DNA primer]
active: all assays above
